Laboratory results: PubChem BioAssay AID2685 (National Center for Advancing Translational Sciences (NCATS), 2010)
This is one part of the list. Further columns of the screen follow, without active or inactive calls. The list favours compounds with an active or inconclusive main result. The note in brackets gives the kind of curve behind each potency; many fits are weak.

Assay: qHTS Assay for Lipid Storage Modulators in Drosophila S3 Cells;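 on cell number change: cells counted by Cell Tracker Red CMTPX staining in the red channel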
Details: BODIPY lipid droplet fluorescence, 18-24 h; for cell number change: measured here: cell count max response, cells fed with added oleic acid
Summary of the method: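 Drosophila S3 cells got compounds at several concentrations plus oleic acid (400 uM solution). Laser-scanning cytometry with 488 nm excitation read lipid droplets at 500-530 nm and cells at 575-640 nm. Percent activity was relative to 20 uM Triacsin C.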

[1] = measured here: cell number channel AC50, cells fed with added oleic acid
[2] = measured here: lipid fluorescence (Fed channel) AC50, cells fed with added oleic acid

| Structure (SMILES) | cell number change [%] | AC50 [1] | AC50 [2] |
| --- | --- | --- | --- |
| CC1CC2(C)Oc3ccccc3C3OCC1(CO)C(C)C32 (stereo unspecified) | -42.9 | 29.1 µM [falling, single point] | 25.9 µM [falling, single point] |
| COC(=O)C(C)C1Sc2ccccc2NC1=O (stereo unspecified) | – | 4.61 µM [falling, single point] | – |
| Cc1cc(C)c(S(=O)(=O)c2ccccc2)c(OC(=O)c2c(F)cccc2F)n1 | -38.5 | 14.6 µM [falling, single point] | – |
| CC(C(=O)N1CCc2ccccc21)N1CCN(S(=O)(=O)c2cccs2)CC1 (stereo unspecified) | -25.3 | – | 29.1 µM [falling, single point] |
| CCC(C(=O)Nc1nnc(-c2ccco2)s1)c1ccccc1 (stereo unspecified) | -35.4 | 29.1 µM [falling, single point] | – |
| C/C(=N\NC(=O)c1nnn(-c2nonc2N)c1CN1CCC(C)CC1)c1cccc(Br)c1 | -17.9 | – | 0.58 µM [rising, single point] |
| O=C(NC1CCCc2ccccc21)N[C@@H](Cc1ccccc1)C(=O)O (stereo partly specified) | -4.17 | – | – |
| Cc1ccc(C)c(NC(=S)N2CCN(S(C)(=O)=O)CC2)c1 | -3.18 | – | 20.6 µM [rising, single point] |
| COc1ccc(CCNc2oc(Cc3ccccc3)nc2C#N)cc1OC | -3.32 | – | 2.59 µM [rising, partial curve] |
| O=S(=O)([N-]c1nc2ccccc2nc1-[n+]1ccc(Cc2ccccc2)cc1)c1ccc(Br)s1 | -6.47 | – | 0.13 µM [falling, full curve, poor fit] |
| CCC(=O)N1CCCc2cc(S(=O)(=O)N3CCN(c4ncccn4)CC3)ccc21 | 37.2 | 16.4 µM [rising, single point] | 16.4 µM [rising, single point] |
| O=C(COc1ccccc1)NNC(=O)c1cccs1 | 9.27 | – | 20.6 µM [rising, partial curve, poor fit] |
| Cc1ccc(OCCN2C(=O)c3ccccc3C2=O)c([N+](=O)[O-])c1 | 65.2 | 0.366 µM [rising, full curve, poor fit] | 2.31 µM [rising, partial curve, poor fit] |
| Cc1ccc(S(=O)(=O)NCCCCCC(N)=O)cc1 | -6.38 | – | 1.3 µM [falling, full curve, poor fit] |
| COc1ccc2nc(SC(C)C(=O)NC3CCCC3)[nH]c2c1 (stereo unspecified) | -88 | 18.4 µM [falling, partial curve] | 0.92 µM [rising, full curve] |
| COc1cccc(C(=O)Nc2ccccc2C(=O)NC2CC2)c1 | -6.23 | – | 29.1 µM [rising, single point] |
| CCn1c2ccccc2n2c(=O)c(=O)n(CC(=O)Nc3ccc(C(C)C)cc3)nc12 | 2.1 | 0.651 µM [falling, single point] | 1.16 µM [falling, single point] |
| Cc1nc2ncnn2c(N2CCN(C(=O)c3cccc(F)c3)CC2)c1Cc1ccccc1 | 8.25 | – | 0.291 µM [rising, full curve, poor fit] |
| COCCN(Cc1ccccc1)C(=S)Nc1ccc(OC(F)F)cc1 | -38.4 | – | 0.206 µM [falling, full curve] |
| c1ccc2c(c1)oc1c(Nc3ccc(CN4CCOCC4)cc3)ncnc12 | -8.57 | – | 2.91 µM [rising, full curve] |
| CCCCNC(=O)CSc1nc2ccc(NC(=O)CSc3nnc(COc4ccccc4C)n3C)cc2s1 | – | 0.517 µM [rising, full curve, poor fit] | 1.03 µM [rising, partial curve] |
| CCOC(=O)C1(Cc2cccc(Cl)c2)CCCN(C(=O)c2cccc(C)n2)C1 (stereo unspecified) | 13.4 | – | 13 µM [rising, partial curve] |
| CC(=O)Oc1ccc(N2C(=O)C3C(C2=O)C(C(=O)c2ccc(Cl)cc2)N2CCCC32)cc1 (stereo unspecified) | -32.3 | 32.6 µM [falling, single point] | 20.6 µM [falling, single point] |
| Cc1ccc2nc(N(CCCN(C)C)C(=O)c3ccc(S(=O)(=O)N4CCCCCC4)cc3)sc2c1 | -1.53 | – | 0.112 µM [rising, full curve, poor fit] |
| Cc1cc(NC(=O)COC(=O)C2COc3ccccc3O2)no1 (stereo unspecified) | -15.6 | – | 0.116 µM [rising, single point] |
| COc1ccc(CNC(=O)CN2C(=O)C3CCCN3c3ncc(Cl)cc32)cc1 (stereo unspecified) | – | 1.16 µM [rising, partial curve] | – |
| O=C(Nc1ccccc1)c1ccccc1NC(=O)[C@H]1CCCC[C@H]1C(=O)O | -3.86 | – | 29.1 µM [rising, single point] |
| COc1ccc(C2Oc3ccccc3C3=C2C(c2cccs2)n2ncnc2N3)cc1 (stereo unspecified) | – | 0.92 µM [rising, full curve, poor fit] | – |

| Structure (SMILES) | cell number change [%] | AC50 [1] | AC50 [2] |
| --- | --- | --- | --- |
| CC1CCCN(CC(=O)Nc2cc(S(=O)(=O)N3CCOCC3)ccc2N2CCCC2)C1 (stereo unspecified) | -10.2 | – | 4.11 µM [falling, partial curve] |
| O=C(c1cccc(S(=O)(=O)N2CCOCC2)c1)N1CCOCC1 | – | – | 1.16 µM [rising, partial curve] |
| Clc1c(OCCCn2ccnc2)ccc2ccccc12 | -53.7 | 29.1 µM [falling, single point] | 1.64 µM [falling, partial curve] |
| CCn1c(C)nnc1SCC(=O)Nc1ccc(N2CCOCC2)cc1 | -7.73 | – | 29.1 µM [rising, single point] |
| CCOC(=O)Cc1cnc(NC(=O)CSc2nc(N)cc(=O)[nH]2)s1 | 61.9 | 3.26 µM [rising, full curve] | 29.1 µM [rising, single point] |
| Fc1ccc(CNc2ncnc3cc(Cl)ccc23)cc1 | -43.8 | 20.6 µM [falling, single point] | 23.1 µM [falling, single point] |
| CCC(NS(=O)(=O)c1cn(C)nc1C)c1ccccc1 (stereo unspecified) | 24.2 | – | 35.5 µM [rising, single point] |
| CCCCCCn1nc(C(=O)N(CCOC)c2c(N)n(CCCC)c(=O)[nH]c2=O)c2ccccc2c1=O | 62.2 | 11.6 µM [rising, partial curve, poor fit] | 11.6 µM [rising, partial curve] |
| O=c1c(/C=C(\O)c2ccc(F)cc2)nc2ccccc2n1-c1ccccc1 | 106 | 23.1 µM [rising, partial curve] | 2.59 µM [rising, partial curve] |
| CCn1c(=O)c2c3c(sc2n2cnnc12)CCC3 | 8.73 | – | 1.84 µM [rising, partial curve] |
| O=C(COC(=O)c1cc(=O)[nH]c(=O)[nH]1)Nc1cccc(S(=O)(=O)N2CCCCC2)c1 | -48.1 | 29.1 µM [falling, single point] | – |
| COc1ccc(N2CCN(C(=O)CS(=O)Cc3nc(-c4ccc(OC)c(OC)c4)oc3C)CC2)cc1 (stereo unspecified) | -14.9 | – | – |
| COc1ccc(Cc2nnc(Cl)c3ccccc23)cc1OC | -17.1 | 0.411 µM [falling, full curve, poor fit] | 0.58 µM [falling, single point] |
| N=c1n(CCO)c2ccccc2n1Cc1ccc(Cl)cc1 | – | 6.51 µM [rising, single point] | 6.51 µM [rising, single point] |
| COc1ccc(OCC(=O)Nc2ccc3nc(C)sc3c2)cc1 | – | 0.82 µM [falling, single point] | – |
| Cc1ccccc1-c1noc(CCC(=O)NCCc2ccccc2)n1 | 45.9 | 29.1 µM [rising, single point] | – |
| Cc1nc(N)sc1-c1csc(Nc2cccc(O)c2)n1 | -53 | 14.6 µM [falling, single point] | 5.8 µM [falling, full curve] |
| CCOc1ccc2oc(C(=O)N3CCN(c4ccccc4OCC)CC3)c(C)c2c1 | – | 3.66 µM [rising, single point] | – |
| Cn1c(CNC(=O)Cc2ccc3c(c2)OCO3)nnc1SCc1ccccc1 | -1.4 | – | – |
| CCCCn1nnnc1SCC(=O)N1CCOCC1 | -62.4 | 5.8 µM [falling, full curve] | 29.1 µM [falling, single point] |
| O=C(Nc1ccc2c(c1)OCCO2)N1CCOCC1 | – | – | 2.31 µM [rising, partial curve] |
| O=C(O)c1ccc(CSc2nc3ccc(NC(=O)c4ccccc4C(=O)O)cc3s2)cc1 | -33.1 | 0.58 µM [falling, partial curve] | 0.00461 µM [falling, full curve, poor fit] |
| CCOC(=O)N1CCN(C(=O)/C=C/c2ccc3c(c2)OCO3)CC1 | – | – | 0.259 µM [rising, full curve, poor fit] |
| CC(=O)c1cccc(NC(=O)C(C)OC(=O)CNC(=O)c2ccc(C)s2)c1 (stereo unspecified) | -32.1 | 0.082 µM [falling, full curve, poor fit] | 0.116 µM [falling, full curve, poor fit] |
| C/C(=N\O)C1(C)N(O)C(C)(C)C(c2ccc(F)cc2)=[N+]1[O-] (stereo unspecified) | 18.1 | – | 0.411 µM [rising, full curve, poor fit] |
| COc1ccc(NC(=O)C2CC(=O)N(c3cccc(C)c3C)C2)cc1 (stereo unspecified) | 6.93 | – | 29.1 µM [falling, single point] |
| COc1ccc(-c2nnc(SCC(=O)NNC(=O)c3ccc(C)cc3)o2)cc1 | 18.5 | 0.146 µM [falling, full curve, poor fit] | 5.8 µM [falling, single point] |

A different layout for part of the listing above.
Cc1ccccc1-c1noc(CCC(=O)NCCc2ccccc2)n1
  cell number change [%]: 45.9; AC50 [1]: 29.1 µM [rising, single point]
Cc1nc(N)sc1-c1csc(Nc2cccc(O)c2)n1
  cell number change [%]: -53; AC50 [1]: 14.6 µM [falling, single point]; AC50 [2]: 5.8 µM [falling, full curve]
CCOc1ccc2oc(C(=O)N3CCN(c4ccccc4OCC)CC3)c(C)c2c1
  AC50 [1]: 3.66 µM [rising, single point]
Cn1c(CNC(=O)Cc2ccc3c(c2)OCO3)nnc1SCc1ccccc1
  cell number change [%]: -1.4
